In this assay the target is T1, GST-S1CD fusion protein (mouse) (UniProt P18828).
T1 sequence: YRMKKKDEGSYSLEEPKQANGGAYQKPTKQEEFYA
Description: pull-down; GST or GST-S1CD adsorbed to glutathione-agarose, incubated 2 hours at 4°C with triple detergent extracts of 3T3 cells that overexpress Topors, diluted in NET-BSA; eluted with glutathione; western blot with chicken anti-Topors; only the target purified. For orientation: In western blotting, separated proteins are transferred to a membrane and probed.

These are yes or no findings as the source states them, for the method shown. In cells and extracts the contact can be indirect. Some entries that bind do so weakly or less than the wild type. Sequences can lack the tags named with a protein.

B1: carboxyl-terminal c-Myc epitope-tagged murine Topors overexpressed in 3T3 cells (protein, UniProt Q80Z37 1-1016)
chain: MGSQPPPPGSPLSREEGEAPPLVPAEEGRRRSRRVRLRGSCRHRPSLLSRRELASNGPAVPATASSEIMASAAKEFKMDNFSPKAGTSKLQQTVPADASPDSKCPICLDRFDNVSYLDRCLHKFCFRCVQEWSKNKAECPLCKQPFDSIFHSVRAEDDFKEYVLRPSYNGSFTNPEVRRFRYRTTMTRERSASLYSPSSTVSRRTTTPPDSGVLFEGLGISTRPRDVDIPQFMRQMALRGPTTTDERSLRKIQEQDIINFRRTLYRAGVRVRSIEDGGRYRDISAEFFRRNPACLHRLVPWLKRELTVLFGAHGSLVNIVQHIIMSNVTRYDLESQAFVSDLRPFLLNRTEHFIHEFISFARSPFNMAAFDQHANYDCPPSSEEGSRSDSSVITISPDEAETQELDMNASTVRQAPWDDETPGPSYSSSEQVHVGVSSLLNSSDSSDEELVSGGTTSQIQGVQTNDDVNNDSDSSSDNCVIVGFVKPLAERTPELVELSSDSEELGPYEKVETVKTQEQEQSYSSGDSDVSRASSPRSVLGKDEQMSKSHCDSDTRISSKKEEKRSTSLPAPRDSSSTRGDRVCSPYNHRHRKGGRSRSSDSRSQSRSGHDPRNHRKHGKKRLRNKRSRSRESSSRPRARKDKKRSRTRDSSWSRRSQTLSLSSGSTSRSRSRSSDHGKRRSRSRNRDRYYLRNNYGSKYKWEYTYYSRNKDRDGYESSYRRRTLSRAHYSRQSSSPEFRIQSFSERTNARKKNHSERKYYYYERRRSRSVSSNRSRTTSAGPDRVRNEKPGGKRKYKTRHLEGTSEEAQPAREFTSKGKDSHYQKSKLDGSYKNESDSFSDSRSSDRETKHKRRRRRTRSLSVEIVYEGKATDTSKHHKKKKKKHKKKHKKHHGDNTSRSPVVITIDSDSDGESEVKAGIECSNGSLPQPIQDGAFETKDVVTIEDELGVLDKDCDVTALADDLSTSQTVENCDSPAVPVEQTLDVREESTFASDLESQSSNVSIQAEPSRPVPS
As to B1, the binding result is given as “binds”.

These data come from article PMC3422340.
